The target in test [1] is T1, HIGH OSMOTIC STRESS GENE EXPRESSION 5 (HOS5), YFP-fragment fusion for BiFC (Arabidopsis thaliana) (UniProt Q8W4B1).
T1 sequence: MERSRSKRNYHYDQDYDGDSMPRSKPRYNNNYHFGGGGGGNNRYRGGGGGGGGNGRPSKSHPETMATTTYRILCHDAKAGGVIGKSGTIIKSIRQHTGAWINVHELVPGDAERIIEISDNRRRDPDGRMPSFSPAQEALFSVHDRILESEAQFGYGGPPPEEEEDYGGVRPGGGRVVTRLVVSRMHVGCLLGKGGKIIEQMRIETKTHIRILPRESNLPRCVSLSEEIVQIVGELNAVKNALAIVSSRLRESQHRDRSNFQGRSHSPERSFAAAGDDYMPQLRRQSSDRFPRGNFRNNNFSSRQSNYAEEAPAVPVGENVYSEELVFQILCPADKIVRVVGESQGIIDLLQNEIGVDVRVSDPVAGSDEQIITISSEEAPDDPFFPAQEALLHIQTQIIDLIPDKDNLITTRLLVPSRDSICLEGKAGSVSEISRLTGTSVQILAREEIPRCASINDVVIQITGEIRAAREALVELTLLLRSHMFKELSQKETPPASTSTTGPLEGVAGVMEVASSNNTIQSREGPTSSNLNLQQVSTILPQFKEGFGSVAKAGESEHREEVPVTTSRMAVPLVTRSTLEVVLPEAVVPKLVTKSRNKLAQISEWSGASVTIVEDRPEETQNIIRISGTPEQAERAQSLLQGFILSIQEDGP
The test can be described thus: split reporter.

Test [2] has as its target T2, HIGH OSMOTIC STRESS GENE EXPRESSION 5 (HOS5), yeast two-hybrid fusion (Arabidopsis thaliana) (UniProt Q8W4B1).
T2 sequence: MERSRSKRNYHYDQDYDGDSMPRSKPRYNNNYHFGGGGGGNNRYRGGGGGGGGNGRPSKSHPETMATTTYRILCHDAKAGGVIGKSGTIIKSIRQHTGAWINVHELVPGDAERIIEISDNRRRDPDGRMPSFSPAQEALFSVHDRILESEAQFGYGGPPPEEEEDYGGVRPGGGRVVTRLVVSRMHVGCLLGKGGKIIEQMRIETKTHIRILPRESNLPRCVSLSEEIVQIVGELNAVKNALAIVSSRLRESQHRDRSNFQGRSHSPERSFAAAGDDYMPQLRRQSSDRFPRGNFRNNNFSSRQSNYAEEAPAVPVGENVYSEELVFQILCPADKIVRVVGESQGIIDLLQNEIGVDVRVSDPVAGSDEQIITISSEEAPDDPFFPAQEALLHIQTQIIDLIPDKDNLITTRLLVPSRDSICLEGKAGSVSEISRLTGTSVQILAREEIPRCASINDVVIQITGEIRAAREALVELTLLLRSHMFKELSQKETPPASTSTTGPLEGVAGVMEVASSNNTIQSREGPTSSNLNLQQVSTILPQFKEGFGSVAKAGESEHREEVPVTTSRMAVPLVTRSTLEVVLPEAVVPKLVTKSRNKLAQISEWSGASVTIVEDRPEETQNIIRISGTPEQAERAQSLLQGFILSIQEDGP
The test can be described thus: two-hybrid.

Results are given in words; binding and its absence hold for the method and conditions named. For some assays here: In cells and extracts the contact can be indirect. Some results given as binding are weak or reduced against the parent protein; the word gives no strength. Where a sequence is shown, tags or fusion partners need not be part of it.

B1: FLOWERING LOCUS K (FLK), YFP-fragment fusion for BiFC (protein, UniProt Q9SR13 1-577)
chain: MAEAEDQQNFVAHNGDQVPDQGSDELHNGLPYQVHDETLVHQPYEVEDPILEPQQYEVPDPTLEPQQYEVPDQTLEPQQYEVDDQLEYHQYQLQDQANEDVQDHSQDDLQYQPQNQEQFQLQDEAHDQAQYQAQGDVQDHNGDEVQDKVEDEEGIPEHLESLQKSEPEEDATVGGEEKRWPGWPGETVFRMLVPAQKVGSIIGRKGDVIKKIVEETRARIKILDGPPGTTERAVMVSGKEEPESSLPPSMDGLLRVHMRIVDGLDGEASQAPPPSKVSTRLLVPASQAGSLIGKQGGTVKAIQEASACIVRVLGSEDLPVFALQDDRVVEVVGEPTSVHRALELIASHLRKFLVDRSIIPFFENQMQKPTRQMDHMPPPHQSWGPPQGHAPSVGGGGYGHNPPPYMQPPPRHDSYYPPPEMRQPPMEKQPHQGISAYGREPPMNVHVSSAPPMVAQQVTQQMQIPLSYADAVIGTSGSNISYTRRLSGATVTIQETRGVPGEMTVEVSGTGSQVQTAVQLIQNFMAEAGAPAPAQPQTVAPEQQGYNPYATHGSVYAAAPTNPPGGYATDYSSGYGY
With B1, the binding entry in test [1] is “binds”.

B2: FLOWERING LOCUS K (FLK), yeast two-hybrid fusion (protein, UniProt Q9SR13 1-577)
chain: MAEAEDQQNFVAHNGDQVPDQGSDELHNGLPYQVHDETLVHQPYEVEDPILEPQQYEVPDPTLEPQQYEVPDQTLEPQQYEVDDQLEYHQYQLQDQANEDVQDHSQDDLQYQPQNQEQFQLQDEAHDQAQYQAQGDVQDHNGDEVQDKVEDEEGIPEHLESLQKSEPEEDATVGGEEKRWPGWPGETVFRMLVPAQKVGSIIGRKGDVIKKIVEETRARIKILDGPPGTTERAVMVSGKEEPESSLPPSMDGLLRVHMRIVDGLDGEASQAPPPSKVSTRLLVPASQAGSLIGKQGGTVKAIQEASACIVRVLGSEDLPVFALQDDRVVEVVGEPTSVHRALELIASHLRKFLVDRSIIPFFENQMQKPTRQMDHMPPPHQSWGPPQGHAPSVGGGGYGHNPPPYMQPPPRHDSYYPPPEMRQPPMEKQPHQGISAYGREPPMNVHVSSAPPMVAQQVTQQMQIPLSYADAVIGTSGSNISYTRRLSGATVTIQETRGVPGEMTVEVSGTGSQVQTAVQLIQNFMAEAGAPAPAQPQTVAPEQQGYNPYATHGSVYAAAPTNPPGGYATDYSSGYGY
In the case of B2, the binding result in test [2] is given as “binds”.

For the origin of these results see publication doi:10.1101/2025.01.09.631668.
